Data reported in publication PMC3675111.
These are yes or no findings as the source states them, for the method shown. In cells and extracts the contact can be indirect. Some binding calls cover weakened binding; strength is not graded here.

By UniProt entry, the sequences of proteins in these tests, tags left out. Where a name states a change or a piece, a line headed by the entry shows the natural chain unless it says otherwise.
UniProt P05555: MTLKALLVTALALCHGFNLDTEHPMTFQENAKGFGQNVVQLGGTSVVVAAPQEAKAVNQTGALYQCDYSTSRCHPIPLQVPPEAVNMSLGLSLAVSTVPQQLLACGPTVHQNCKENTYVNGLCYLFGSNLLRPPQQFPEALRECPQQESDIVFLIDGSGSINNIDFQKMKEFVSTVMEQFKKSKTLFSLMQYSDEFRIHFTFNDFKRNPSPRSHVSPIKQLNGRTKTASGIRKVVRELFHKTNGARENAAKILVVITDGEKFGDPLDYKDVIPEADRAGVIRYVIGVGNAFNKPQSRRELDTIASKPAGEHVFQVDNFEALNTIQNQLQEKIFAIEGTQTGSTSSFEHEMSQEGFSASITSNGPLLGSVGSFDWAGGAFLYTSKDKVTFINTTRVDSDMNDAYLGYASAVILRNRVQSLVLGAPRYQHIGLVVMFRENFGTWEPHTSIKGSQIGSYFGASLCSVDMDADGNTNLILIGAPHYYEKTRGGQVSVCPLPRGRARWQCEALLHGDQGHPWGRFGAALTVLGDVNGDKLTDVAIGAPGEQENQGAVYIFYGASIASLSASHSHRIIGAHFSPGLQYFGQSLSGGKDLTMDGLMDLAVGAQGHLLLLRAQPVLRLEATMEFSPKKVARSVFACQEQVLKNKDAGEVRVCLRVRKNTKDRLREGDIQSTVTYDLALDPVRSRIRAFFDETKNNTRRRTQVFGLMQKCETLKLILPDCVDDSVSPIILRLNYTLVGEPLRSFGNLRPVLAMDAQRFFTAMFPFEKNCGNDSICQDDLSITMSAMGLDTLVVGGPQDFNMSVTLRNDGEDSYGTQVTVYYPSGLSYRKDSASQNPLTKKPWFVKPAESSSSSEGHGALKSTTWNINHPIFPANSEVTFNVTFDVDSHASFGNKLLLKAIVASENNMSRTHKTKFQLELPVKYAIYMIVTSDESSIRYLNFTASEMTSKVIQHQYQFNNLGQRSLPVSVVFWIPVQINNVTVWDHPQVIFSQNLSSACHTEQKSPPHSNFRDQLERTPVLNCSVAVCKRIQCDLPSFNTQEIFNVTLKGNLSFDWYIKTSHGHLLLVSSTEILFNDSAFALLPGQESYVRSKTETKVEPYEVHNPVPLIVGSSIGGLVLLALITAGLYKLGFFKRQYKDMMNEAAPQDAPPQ

Molecular target: T1, protein kinase C zeta (PKCζ) (mouse (endogenous in peritoneal neutrophils)) (UniProt Q02956)
T1 sequence: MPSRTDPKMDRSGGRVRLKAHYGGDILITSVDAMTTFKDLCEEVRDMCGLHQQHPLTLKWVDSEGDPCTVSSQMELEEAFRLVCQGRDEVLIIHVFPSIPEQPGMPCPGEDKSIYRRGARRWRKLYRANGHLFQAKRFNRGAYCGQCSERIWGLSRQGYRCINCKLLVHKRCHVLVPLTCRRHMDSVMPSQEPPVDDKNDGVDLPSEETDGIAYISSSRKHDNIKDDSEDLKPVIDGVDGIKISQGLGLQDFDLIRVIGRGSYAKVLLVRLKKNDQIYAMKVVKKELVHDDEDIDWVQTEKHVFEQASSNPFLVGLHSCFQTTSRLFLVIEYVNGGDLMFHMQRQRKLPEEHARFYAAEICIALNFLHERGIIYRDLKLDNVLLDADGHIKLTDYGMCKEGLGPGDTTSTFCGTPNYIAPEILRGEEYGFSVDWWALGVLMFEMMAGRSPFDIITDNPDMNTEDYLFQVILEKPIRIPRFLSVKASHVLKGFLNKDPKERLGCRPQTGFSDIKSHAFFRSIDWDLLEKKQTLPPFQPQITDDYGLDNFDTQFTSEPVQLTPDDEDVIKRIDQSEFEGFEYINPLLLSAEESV
Experiment: co-IP; lysates (RIPA buffer) of mouse peritoneal neutrophils (WT or CD40-/-), unstimulated or stimulated with rm-CD40L 100 ng/ml for 5, 15, 30 min; immunoprecipitated overnight at 4°C with anti-PKCζ antibody, protein A beads; immunoblot with anti-Mac-1 (CD11b) antibody

binding: binds
Substance: β2 integrin Mac-1 (CD11b/CD18) (from UniProt P05555 17-1153; P11835 24-771) (complex)
